Taken from: PubChem BioAssay AID1159584 (Peter MacCallum Cancer Centre, 2016)

Screen: 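Genes that CDH1-null MCF10A cells selectively depend on to survive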 (primary screen)
System: human MCF10A breast epithelial cells, parental and CDH1-null
Reagents: siRNA against human genes
Read-out: 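ATP luminescence (CellTiter-Glo) viability per line relative to mean mock wells over all plates, and the ratio of CDH1-null to parental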
Direction: CDH1-null / parental viability ratio: higher = CDH1-null cells survive relatively better than parental; CDH1-null viability vs mock: higher = more viable CDH1-null cells; parental viability vs mock: higher = more viable parental cells
The whole screen tested about 18,000 reagents; below is a part drawn at random. The record does not give: the amount of reagent, the time to read-out.

gene symbol | PubChem SID | CDH1-null / parental viability ratio | CDH1-null viability vs mock (fraction of mock) | parental viability vs mock (fraction of mock)
TKTL2 | SID152155129 | 0.97 | 0.84 | 0.87
ZFAND2B | SID135623175 | 1.11 | 0.78 | 0.7
KIF2C | SID134310681 | 1.07 | 0.94 | 0.88
ASB8 | SID134318467 | 1.05 | 0.86 | 0.82
DBF4B | SID134317197 | 1 | 0.84 | 0.84
SBK1 | SID152154198 | 0.93 | 0.8 | 0.86
EHMT1 | SID134312188 | 1.2 | 0.66 | 0.55
MCU | SID134319557 | 1.32 | 0.66 | 0.5
TOMM70 | SID135624157 | 1.26 | 1.08 | 0.86
CARD18 | SID134314607 | 1.1 | 1.06 | 0.96
SPRYD3 | SID134319083 | 1.02 | 0.84 | 0.82
ATOH8 | SID152154795 | 1.08 | 0.8 | 0.74
SLC19A4P | SID152148554 | 0.99 | 0.78 | 0.79
PI4K2A | SID135621249 | 1.02 | 0.9 | 0.88
FRAS1 | SID135623736 | 1.17 | 0.76 | 0.65
TNFRSF1A | SID134310799 | 1.17 | 0.88 | 0.75
ICAM2 | SID152146967 | 1.21 | 1.02 | 0.84
LRRC4B | SID152147202 | 1.33 | 1.01 | 0.76
SRF | SID152151503 | 1.22 | 1.04 | 0.85
SLC24A3 | SID134312512 | 1.19 | 0.83 | 0.7
OLIG2 | SID152153418 | 0.92 | 0.74 | 0.8
COX16 | SID152152865 | 1.46 | 1.11 | 0.76
TMEM132A | SID152155554 | 1.11 | 0.63 | 0.57
CCDC77 | SID134318964 | 1.07 | 0.48 | 0.45
MICU2 | SID134319511 | 0.92 | 0.76 | 0.83
OR4C15 | SID135625124 | 1.08 | 0.9 | 0.83
MRPL22 | SID135623302 | 1.01 | 0.72 | 0.71
GAS8-AS1 | SID135623932 | 0.98 | 0.43 | 0.44
CDH7 | SID152156521 | 0.95 | 0.76 | 0.8
MYL6B | SID152147074 | 0.78 | 0.45 | 0.58
CARHSP1 | SID152148612 | 1.21 | 0.7 | 0.58
TAS2R39 | SID152151375 | 0.96 | 0.7 | 0.73
RPP21 | SID135622752 | 1.25 | 0.6 | 0.48
DOT1L | SID152152775 | 1.49 | 0.91 | 0.61
RPL27A | SID152150450 | 1.72 | 0.31 | 0.18
RFTN1 | SID152151284 | 1.12 | 0.67 | 0.6
LOX | SID135621845 | 1.02 | 1.1 | 1.08
CLBA1 | SID152151610 | 1.07 | 0.92 | 0.86
ANOS1 | SID135622045 | 0.9 | 0.94 | 1.04

Copied from the list.
KIF2C [SID134310681], parental viability vs mock (fraction of mock): 0.88
Entry for SRF [SID152151503] in “parental viability vs mock (fraction of mock)”: 0.85
For “CDH1-null viability vs mock (fraction of mock)”, ATOH8 [SID152154795] is entered as 0.8
GAS8-AS1 [SID135623932], CDH1-null viability vs mock (fraction of mock) = 0.43
For “CDH1-null / parental viability ratio”, COX16 [SID152152865] has 1.46
PI4K2A [SID135621249], CDH1-null / parental viability ratio = 1.02

The list goes on:
gene symbol | PubChem SID | CDH1-null / parental viability ratio | CDH1-null viability vs mock (fraction of mock) | parental viability vs mock (fraction of mock)
ZRSR2 | SID152155575 | 0.95 | 0.88 | 0.93
NMNAT2 | SID134313440 | 1.06 | 0.94 | 0.89
EOLA1 | SID135623533 | 1 | 0.88 | 0.88
RNF114 | SID134312147 | 0.91 | 0.94 | 1.03
DUS2 | SID152156208 | 1.24 | 0.97 | 0.78
SFTPD | SID152156431 | 1.19 | 0.74 | 0.62
SPART | SID152151143 | 1.13 | 1.04 | 0.92
OTOA | SID152150640 | 1.03 | 0.7 | 0.68
GLT8D2 | SID152149152 | 1.03 | 0.97 | 0.94
DNAH10 | SID135624630 | 1.14 | 0.82 | 0.72
KIZ | SID135623426 | 0.84 | 0.66 | 0.79
SOX13 | SID134323783 | 0.81 | 0.46 | 0.57
TYRP1 | SID134316820 | 1.14 | 1.21 | 1.06
ATP5MC1 | SID152154869 | 0.96 | 0.75 | 0.78
KRTAP27-1 | SID135625470 | 0.65 | 0.43 | 0.66
FAM228A | SID135625531 | 1.05 | 0.45 | 0.43
LYPD8 | SID135625516 | 0.83 | 0.78 | 0.94
PAPOLA | SID152155608 | 0.83 | 0.6 | 0.72
TEX261 | SID134320195 | 1.12 | 0.94 | 0.84
ROCK2 | SID135620850 | 0.93 | 0.9 | 0.97
HDAC3 | SID152154607 | 0.85 | 0.78 | 0.92
PCDHA2 | SID135622489 | 1.27 | 0.76 | 0.6
CCDC38 | SID134322491 | 0.9 | 0.7 | 0.78
STARD6 | SID134320859 | 0.76 | 0.61 | 0.8
NID2 | SID152148154 | 0.83 | 0.6 | 0.72
IL17RD | SID152151043 | 1.02 | 0.92 | 0.9
PHF12 | SID135621829 | 0.94 | 0.96 | 1.02
CHRNA10 | SID134311554 | 0.83 | 0.86 | 1.03
MRI1 | SID152153531 | 0.87 | 0.8 | 0.92
